Measurements taken from the supplement of paper PMC6445147.
This is a noisy data set.

B1: human tRNA-Pro; a variant is named by its letters at N, in order (parent)
chain: GGCTCGTTGGTCTAGNGGTATGATTCTCGCTTAGGGTGCGAGAGGTCCCGGGTTCNNATCCCGGACGAGCCC

Variants of: B1
Assay: tRNA 3' processing efficiency (processed reads / all reads, maximum-likelihood estimate) (fraction); higher = more efficient 3' processing
Settings: HEK293T; construct: no Pol-II promoter ((-)CMV library)

Variant	tRNA 3' processing efficiency
GGCTCGTCGGTCTAGGGGGATGATTCTCGCTTAGGGTGCGAGAGGTCCCGGGTTCACATCCCGGACGAGCCC [GAC T8C T19G]	0.5
GGCTCGTTGGTCTAGAGGTATGATTCTCGCTTAGGGTGCGAGAGGTCCCGGGTTCTAGCCCCGGACGAGCCC [ATA A58G T59C]	0.43
GGCTCGTTTGTCTAGGGGTATGATTCTCGCTTAGGGTGCGAGAGGTCCCGGGTTCTTACCCCGGACGAGCCC [GTT G9T T59C]	0.2
GGCTCGTTGGTCTAGGGGTATGATTCTCGCTTGGGGTGCGAGAGGTCCCGGGTTCAAACCCCGGACGAGCCC [GAA A33G T59C]	0.44
GGCTCGTTGGTCTAAGCGAATGATTCTCGCTTAGGGTGCGAGAGGTCCCGGGTTCAATTCCCGGACGAGCCC [GAA G15A G17C T19A A58T]	0.25
GGCTCGTTGGTCTAGCTGTATGATTCTCGCTTAGGGTGCGAGAGGTCCCGGGTTCTCATCCCGGACGAGCCC [CTC G17T]	0.91
GGCTCGTTTGTCTGTGGGTATGATTCTCGCTTAGGGTGCGAGAGGTCCCGGGTTCATATCCCGGACGAGCCC [GAT G9T A14G G15T]	0.17
GGCTCGTTAGTCTAGAGGTATGATTCTCGCTTAGGGTGCGAGAGGTCCCGGGTTGGAATCCCGGACGAGCCC [AGA G9A C55G]	0.24
GGCTCGTTGGTCTGGGGGTCTGATTCTCGCTTAGGGTGCGAGAGGTCCCGGGTTCAGGTCCCGGACGAGCCC [GAG A14G A20C A58G]	0.2
GGCTCGTTGGTCTAGTGGTATGATTCTCGCTTGGGGTGCGAGAGGTCCCGGGTTCGATTCCCGGACGAGCCC [TGA A33G A58T]	0.99
GGCTCGTTGGACTAGGGGTATGATTCTCGCTTAGGGTGCGAGAGGTCCCGGGTTCTAGTCCCGGACGAGCCC [GTA T11A A58G]	0.08
GGCTCGTGGGTCTAGCGGTATGATTCTCGCTTAGGGTGCGAGAGGTCCCGGGATCGAATCCCGGACGAGCCC [CGA T8G T53A]	0.27
GGCTCGTTGGTCTAGTGGTGTGATTCTCGCTTAGGGTGCGAGAGGTCCCGGGTTCATGTCCCGGACGAGCCC [TAT A20G A58G]	0.2
GGCTCGTTGGTCTAGTGGGGTGATTCTCGCTTAGGGTGCGAGAGGTCCCGGGTTCTAATCCCGGACGAGCCC [TTA T19G A20G]	0.45
GGCTCGTTGGTCTGCGGGTATGATTCTCGCTTAGGGTGCGAGAGGTCCCGGGTTCACGGCCCGGACGAGCCC [GAC A14G G15C A58G T59G]	0.33
GGCTCGTTGGTCTAGAGGGATGATTCTCGCTTAGGGTGCGAGAGGTCCCGGGTTTAAAACCCGGACGAGCCC [AAA T19G C55T T59A]	0.33
GGCTCGTGGGTCTAGGAGTTTGATTCTCGCTTAGGGTGCGAGAGGTCCCGGGTTCAATTCCCGGACGAGCCC [GAA T8G G17A A20T A58T]	0.25
GGCTCGTTGGTCTCGCGGTTTGATTCTCGCTTAGGGTGCGAGAGGTCCCGGGTTCAATGCCCGGACGAGCCC [CAA A14C A20T A58T T59G]	0.4
GGCTCGTTGGTCTAGGGGCATGATTCTCGCTTAGGGTGCGAGAGGTCCCGGGTATGAATCCCGGACGAGCCC [GGA T19C T54A C55T]	0.33

Variant	tRNA 3' processing efficiency
GGCTCGTTGGTCTGGCGGTGTGATTCTCGCTTAGGGTGCGAGAGGTCCCGGGTTCCAATCCCGGACGAGCCC [CCA A14G A20G]	0.4
GGCTCGTTGGTCTCGGGGACTGATTCTCGCTTAGGGTGCGAGAGGTCCCGGGATCAAATCCCGGACGAGCCC [GAA A14C T19A A20C T53A]	0.14
GGCTCGTGGGTCTAGGGGTATGATTCTCGCTTAGGGTGCGAGAGGTCCCGGGATCGCGTCCCGGACGAGCCC [GGC T8G T53A A58G]	0.25
GGCTCGTTAGTCTATTGGTATGATTCTCGCTTAGGGTGCGAGAGGTCCCGGGTTCATATCCCGGACGAGCCC [TAT G9A G15T]	0.78
GGCTCGTTGGTCTATCGGGATGATTCTCGCTTAGGGTGCGAGAGGTCCCGGGGTCTAATCCCGGACGAGCCC [CTA G15T T19G T53G]	0.25
GGCTCGTTAGTCTAGGGGAATGATTCTCGCTTAGGGTGCGAGAGGTCCCGGGGTCGAATCCCGGACGAGCCC [GGA G9A T19A T53G]	0.4
GGCTCGTTGGTCTCCGGGTCTGATTCTCGCTTAGGGTGCGAGAGGTCCCGGGTTCAAACCCCGGACGAGCCC [GAA A14C G15C A20C T59C]	0.17
GGCTCGTTAGTCTAGCGGTATGATTCTCGCTTAGGGTGCGAGAGGTCCCGGGTTCTTATCCCGGACGAGCCC [CTT G9A]	0.5
GGCTCGTCGGTCTAGGGGAATGATTCTCGCTTAGGGTGCGAGAGGTCCCGGGTTCAGGTCCCGGACGAGCCC [GAG T8C T19A A58G]	0.18
GGCTCGTGGGTCTGAGGGAATGATTCTCGCTTAGGGTGCGAGAGGTCCCGGGTTCAATTCCCGGACGAGCCC [GAA T8G A14G G15A T19A A58T]	0.4
GGCTCGTTGGTCTTGAGGTATGATTCTCGCTTAGGGTGCGAGAGGTCCCGGGTTCTTATCCCGGACGAGCCC [ATT A14T]	0.17
GGCTCGTTGGTCTAGGGGCCTGATTCTCGCTTAGGGTGCGAGAGGTCCCGGGTTCAAGACCCGGACGAGCCC [GAA T19C A20C A58G T59A]	0.5
GGCTCGTTAGTCTGGGGGAATGATTCTCGCTTAGGGTGCGAGAGGTCCCGGGTACAAACCCCGGACGAGCCC [GAA G9A A14G T19A T54A T59C]	0.38
GGCTCGTTGGTCTCGGGGTATGATTCTCGCTTAGGGTGCGAGAGGTCCCAGGTTCAAATCCCGGACGAGCCC [GAA A14C G50A]	0.44
GGCTCGTTGGTCTAGGGGTATGATTCTCGCTTAGGGTGCGAGAGGTCCCAGGTTCAATTCCCGGACGAGCCC [GAA G50A A58T]	0.29
GGCTCGTTTGTCTAGTGGTATGATTCTCGCTTAGGGTGCGAGAGGTCCCGGGTTCTAGTCCCGGACGAGCCC [TTA G9T A58G]	0.56
GACTCGTTGGTCTAGGGGTATGATTCTCGCTTAGGGTGCGAGAGGTCCCGGGATCAAGTCCCGGACGAGCCC [GAA G2A T53A A58G]	0.62
GGCTCGTAGGTCTGGGTGTATGATTCTCGCTTAGGGTGCGAGAGGTCCCGGGTTCTAATCCCGGACGAGCCC [GTA T8A A14G G17T]	0.25

Laid out differently: results already given
Variant | tRNA 3' processing efficiency
GGCTCGTTAGTCTAGCGGTATGATTCTCGCTTAGGGTGCGAGAGGTCCCGGGTTCTTATCCCGGACGAGCCC [CTT G9A] | 0.5
GGCTCGTTTGTCTAGTGGTATGATTCTCGCTTAGGGTGCGAGAGGTCCCGGGTTCTAGTCCCGGACGAGCCC [TTA G9T A58G] | 0.56
